The list does not hold the whole screen: it gathers tests that were run many times, whatever their T/C, doses with no T/C, and many T/C values between a quarter and a half above the control. Other doses and runs of a compound stand elsewhere. T/C gives the treated animals as a percentage of the vehicle group. Some doses have a count of surviving animals in place of a T/C: the source files T/C as zero there, which appears to mark a toxic dose or a test without result, not a measured value. Some survivor counts are full or nearly so, which does not show that the dose was tolerated: survival well below the control is almost never listed, so the zero probably covers shortened survival too. Counts of survivors are from the toxicity check (mostly the fifth day) where no day follows; animals may have died later. Schedules are NCI's codes, read here as Q, the interval in days (D) or hours (H), X, the number of doses. Some schedules carry Z or #; the key to these is not given. For survival time, this PubChem deposit counts one and a half times the control or more as active, and values a quarter to a half above the control carry no call in these data; other NCI protocols may use other cut-offs. Some T/C values are followed by the survivors on the day toxicity was checked, most often the fifth; without a count, all were alive then. Some entries hold several experiments; the results are listed from low to high.
Tested on: BDF1 mice, P388 leukemia ip, median survival T/C
Experiment: NCI In Vivo Anticancer Drug Screen. Data for tumor model P388 Leukemia (intraperitoneal) in B6D2F1 (BDF1) mice
Conditions: T/C endpoint: median survival time, higher T/C = longer survival
In short: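 Steps: implant the tumour, treat one group with compound and another with vehicle, record survival, then divide treated by control.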

[1] = dose: 100.0 mg/kg/injection, schedule: Q01DX009 (ip), vehicle: saline with Tween-80
[2] = dose: 200.0 mg/kg/injection, schedule: Q01DX009 (ip), vehicle: saline with Tween-80
[3] = dose: 400.0 mg/kg/injection, schedule: Q01DX009 (ip), vehicle: saline with Tween-80
[4] = dose: 100.0 mg/kg/injection, schedule: Q01DX009 (ip), vehicle: saline
[5] = dose: 200.0 mg/kg/injection, schedule: Q01DX009 (ip), vehicle: saline

What does the source list for `CSc1ncnc2c1ncn2CO`?
T/C (dose: 44.0 mg/kg/injection, schedule: Q01DX009 (ip), vehicle: saline with Tween-80): 127 % of control [5 of 6 alive]; T/C (dose: 60.0 mg/kg/injection, schedule: Q01DX009 (ip), vehicle: Klucel (hydroxypropylcellulose) (HPC)): 125 % of control; T/C (dose: 60.0 mg/kg/injection, schedule: Q01DX009 (ip), vehicle: saline): 137 % of control; T/C (dose: 66.0 mg/kg/injection, schedule: Q01DX009 (ip), vehicle: Klucel (hydroxypropylcellulose) (HPC)): 135 % of control; T/C (dose: 66.0 mg/kg/injection, schedule: Q01DX009 (ip), vehicle: saline with Tween-80): 140 % of control; T/C [1]: 141 % of control [5 of 6 alive]; T/C (dose: 100.0 mg/kg/injection, schedule: Q04DX003 (ip), vehicle: saline with Tween-80): 130 % of control; survivor count (dose: 120.0 mg/kg/injection, schedule: Q01DX009 (ip), vehicle: saline): 6 of 6; survivor count (dose: 150.0 mg/kg/injection, schedule: Q01DX009 (ip), vehicle: saline with Tween-80): 5 of 6; survivor count [2]: 0 of 6; T/C (dose: 200.0 mg/kg/injection, schedule: Q04DX003 (ip), vehicle: saline with Tween-80): 140 % of control; survivor count (dose: 240.0 mg/kg/injection, schedule: Q01DX009 (ip), vehicle: Klucel (hydroxypropylcellulose) (HPC)): 0 of 6; survivor count (dose: 240.0 mg/kg/injection, schedule: Q01DX009 (ip), vehicle: saline): 2 of 6; survivor count [3]: 0 of 6

What does the source list for `CCCCCCC(N)C(C)O` (configuration not stated)?
survivor count [1]: 5 of 6; survivor count [2]: 0 of 6

What does the source list for `N=C(N)c1ccc(N=C(N)Nc2ccc(C(=N)N)cc2)cc1`?
survivor count [4]: 2 of 6; survivor count [5]: 0 of 6

How did the T/C (dose: 50.0 mg/kg/injection, schedule: Q01DX009 (ip), vehicle: Klucel (hydroxypropylcellulose) (HPC)) turn out when `CN(C)N=Nc1ccccc1[N+](=O)[O-]` was run?
The T/C was 126 % of control.

What about the survivor count (dose: 200.0 mg/kg/injection, schedule: Q01DX009 (ip), vehicle: Klucel (hydroxypropylcellulose) (HPC)) of the same compound?
Its survivor count is 5 of 6.

For `CC1CCN(SSc2nc3ccccc3s2)CC1`, which T/C [2] is on record?
Its T/C is 125 % of control.

Which results are given for `CCN(CC)CC(=O)c1ccc(O)c(O)c1`?
T/C [1]: 131 % of control; T/C [2]: 142 % of control; T/C [3]: 144 % of control

For `CCCCCCCCCCCCCCCCN(C)c1ccc(C=O)cc1`, which T/C (dose: 400.0 mg/kg/injection, schedule: Q01DX009 (ip), vehicle: saline) is on record?
The T/C was 140 % of control.

Which results are given for `Clc1cc(N2CC2)nc(N2CC2)n1`?
survivor count (dose: 2.5 mg/kg/injection, schedule: Q01DX009 (ip), vehicle: saline): 6 of 6; T/C (dose: 3.12 mg/kg/injection, schedule: Q01DX001 (ip), vehicle: saline): 140 % of control; survivor count (dose: 5.0 mg/kg/injection, schedule: Q01DX009 (ip), vehicle: saline): 6 of 6; survivor count (dose: 13.0 mg/kg/injection, schedule: Q04DX003 (ip), vehicle: saline): 6 of 6

`CCC(c1ccc(OC)cc1)C(NCC(=O)N/N=C/c1ccccc1[N+](=O)[O-])c1ccc(OC)cc1` (configuration not stated) was tested. Which survivor count (dose: 25.0 mg/kg/injection, schedule: Q01DX001 (ip), vehicle: saline with Tween-80) did it give?
Its survivor count is 6 of 6.

And the survivor count (dose: 50.0 mg/kg/injection, schedule: Q01DX001 (ip), vehicle: saline with Tween-80)?
Its survivor count is 6 of 6.

With `COC(=O)C(CC(C)C)NC(=O)C(Cc1ccc(Oc2ccc([N+](=O)[O-])cc2[N+](=O)[O-])cc1)NC=O` (configuration not stated) as the compound, how does the T/C (dose: 50.0 mg/kg/injection, schedule: Q04DX003 (ip), vehicle: water, evaluated on day 21) read?
Its T/C is 102 % of control.

What about the T/C (dose: 50.0 mg/kg/injection, schedule: Q04DX003 (ip), vehicle: water, evaluated on day 30) of the same compound?
The T/C was 104 and 107 % of control.

What about the survivor count (dose: 50.0 mg/kg/injection, schedule: Q04DX003 (ip), vehicle: water) of the same compound?
The survivor count was 6 of 6.

And the T/C (dose: 100.0 mg/kg/injection, schedule: Q04DX003 (ip), vehicle: water, evaluated on day 21)?
The T/C was 104 % of control.

What about the T/C (dose: 100.0 mg/kg/injection, schedule: Q04DX003 (ip), vehicle: water, evaluated on day 30) of the same compound?
Its T/C is 101 and 107 % of control [5 of 6 alive].

What about the T/C (dose: 100.0 mg/kg/injection, schedule: Q04DX003 (ip), vehicle: water, evaluated on day 31) of the same compound?
Its T/C is 89 % of control.

And the T/C (dose: 200.0 mg/kg/injection, schedule: Q04DX003 (ip), vehicle: water, evaluated on day 21)?
The T/C was 104 % of control.

And the T/C (dose: 200.0 mg/kg/injection, schedule: Q04DX003 (ip), vehicle: water, evaluated on day 30)?
The T/C was 103 and 120 % of control.

And the T/C (dose: 200.0 mg/kg/injection, schedule: Q04DX003 (ip), vehicle: water, evaluated on day 31)?
Its T/C is 130 % of control [5 of 6 alive].

What does the source list for `CNC(=O)c1ccc(NC(=O)Nc2cccc(C3=NCCN3)c2)cc1NC(=O)Nc1cccc(C2=NCCN2)c1`?
T/C (dose: 9.0 mg/kg/injection, schedule: Q01DX009 (ip), vehicle: saline with Tween-80, evaluated on day 29): 137 % of control; T/C (dose: 9.0 mg/kg/injection, schedule: Q01DX009 (ip), vehicle: saline with Tween-80, evaluated on day 30): 125 % of control; T/C (dose: 10.0 mg/kg/injection, schedule: Q01DX009 (ip), vehicle: saline with Tween-80): 131 % of control; T/C (dose: 13.0 mg/kg/injection, schedule: Q01DX009 (ip), vehicle: saline with Tween-80, evaluated on day 29): 141 % of control; T/C (dose: 13.0 mg/kg/injection, schedule: Q01DX009 (ip), vehicle: saline with Tween-80, evaluated on day 30): 129 % of control; T/C (dose: 20.0 mg/kg/injection, schedule: Q01DX009 (ip), vehicle: saline with Tween-80): 137 % of control; survivor count (dose: 30.0 mg/kg/injection, schedule: Q01DX009 (ip), vehicle: saline with Tween-80): 6 of 6; survivor count (dose: 40.0 mg/kg/injection, schedule: Q01DX009 (ip), vehicle: saline with Tween-80): 3 of 6

For `Clc1ccc(-c2cc[s+]s2)cc1`, which survivor count (dose: 100.0 mg/kg/injection, schedule: Q01DX009 (ip), vehicle: water) is on record?
Its survivor count is 2 of 6.

What about the survivor count (dose: 200.0 mg/kg/injection, schedule: Q04DX003 (ip), vehicle: water) of the same compound?
The survivor count was 0 of 6.

How did the survivor count (dose: 0.13 mg/kg/injection, schedule: Q01DX009 (ip), vehicle: Klucel (hydroxypropylcellulose) (HPC)) turn out when `CC1=CC23C(COC(=O)C24CO4)C(C(=O)O)=CC3C1C` (configuration not stated) (tested in a mixture with another compound) was run?
The survivor count was 3 of 3.

And the survivor count (dose: 0.5 mg/kg/injection, schedule: Q01DX009 (ip), vehicle: Klucel (hydroxypropylcellulose) (HPC))?
Its survivor count is 3 of 3.

With `O=C(Cn1ccc(=O)[nH]c1=O)c1ccc([N+](=O)[O-])o1` as the compound, how does the survivor count (dose: 50.0 mg/kg/injection, schedule: Q01DX009 (ip), vehicle: saline) read?
The survivor count was 3 of 6.

What about the survivor count [4] of the same compound?
The survivor count was 0 of 6.

And the survivor count (dose: 100.0 mg/kg/injection, schedule: Q04DX003 (ip), vehicle: saline)?
The survivor count was 1 of 6.

What about the survivor count [5] of the same compound?
Its survivor count is 0 of 6.

Which survivor count (dose: 6.25 mg/kg/injection, schedule: Q01DX005 (ip), vehicle: other) does the source give for `CO[C@H]1/C=C/O[C@@]2(C)Oc3c(C)c(O)c4c(O)c(c(/C=N/N5C(C)CN(Cc6ccccc6)CC5C)c(O)c4c3C2=O)NC(=O)/C(C)=C\C=C\[C@H](C)[C@H](O)[C@@H](C)[C@@H](O)[C@@H](C)[C@H](OC(C)=O)[C@@H]1C` (some centres not stated) here?
Its survivor count is 8 of 8.

And the survivor count (dose: 25.0 mg/kg/injection, schedule: Q02DX Z (oral), vehicle: Klucel (hydroxypropylcellulose) (HPC))?
Its survivor count is 12 of 12.

What about the survivor count (dose: 200.0 mg/kg/injection, schedule: Q01DX005 (oral), vehicle: other) of the same compound?
The survivor count was 5 of 8.

What about the survivor count (dose: 800.0 mg/kg/injection, schedule: Q01DX005 (ip), vehicle: Klucel (hydroxypropylcellulose) (HPC)) of the same compound?
Its survivor count is 5 of 8.

And the survivor count (dose: 800.0 mg/kg/injection, schedule: Q02DX Z (oral), vehicle: Klucel (hydroxypropylcellulose) (HPC))?
Its survivor count is 12 of 12.

And the survivor count (dose: 1600.0 mg/kg/injection, schedule: Q02DX Z (oral), vehicle: Klucel (hydroxypropylcellulose) (HPC))?
The survivor count was 11 of 12.

From PubChem BioAssay AID328 (DTP/NCI, 2004)
